PubChem BioAssay AID1224829 | NIAID – 2016

Screen: 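Genes needed for LPS-driven NF-kappaB p65 nuclear entry in mouse macrophages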 (follow-up of hits)
Cell system: mouse RAW264.7 G9 macrophage reporter cells
Reagent: single siRNA against mouse genes, 100 nM
Time to read-out: 2 days of siRNA knock-down, then 40 min of LPS before fixing
Treatment: LPS (Salmonella minnesota R595) at 10 ng/ml
Measured: 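High-content images after 40 min LPS exposure; GFP-p65 nucleus to surrounding ring signal ratio, normalised to plate median and non-targeting control wells, expressed as z-score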
Direction: p65 translocation z-score: higher = more nuclear NF-kappaB p65 after LPS
Active means: 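An siRNA is called active when the mean z-score of its two replicates is above 2 or below -2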
Calls: active = changed p65 translocation (either direction); inactive = no clear change
In all, the deposit lists about 3,800 reagents; this is a part drawn at random. 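Calls cover raised and lowered translocation; gene median uses one vendor's three siRNAs; qiagen siRNAs acted more weakly than ambion siRNAs.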 Reagents against one gene are numbered here. Further read-outs or replicates are left out here.

Med14 #1, siRNA vendor or control pool ambion single siRNA: p65 translocation z-score, replicate mean = -0.983; p65 translocation z-score, replicate 1 = -1.57; activity call = inactive
Med14 #2, siRNA vendor or control pool ambion single siRNA: p65 translocation z-score, replicate mean = -2.72; p65 translocation z-score, replicate 1 = -2; activity call = active
Med14 #3, siRNA vendor or control pool ambion single siRNA: p65 translocation z-score, replicate mean = -2; p65 translocation z-score, replicate 1 = -3.08; activity call = inactive
Med14 #4, siRNA vendor or control pool qiagen single siRNA: p65 translocation z-score, replicate mean = -7.78; p65 translocation z-score, replicate 1 = -7.78; activity call = active
Med14 #5, siRNA vendor or control pool qiagen single siRNA: p65 translocation z-score, replicate mean = -3.59; p65 translocation z-score, replicate 1 = -3.03; activity call = active
Med14 #6, siRNA vendor or control pool qiagen single siRNA: p65 translocation z-score, replicate mean = -8.54; p65 translocation z-score, replicate 1 = -8.54; activity call = active
Dgcr8 #1, siRNA vendor or control pool ambion single siRNA: p65 translocation z-score, replicate mean = -2.19; p65 translocation z-score, replicate 1 = -1.78; activity call = active
Dgcr8 #2, siRNA vendor or control pool ambion single siRNA: p65 translocation z-score, replicate mean = -2.52; p65 translocation z-score, replicate 1 = -2.11; activity call = active
Dgcr8 #3, siRNA vendor or control pool ambion single siRNA: p65 translocation z-score, replicate mean = -2.3; p65 translocation z-score, replicate 1 = -1.77; activity call = active
Dgcr8 #4, siRNA vendor or control pool qiagen single siRNA: p65 translocation z-score, replicate mean = 0.54; p65 translocation z-score, replicate 1 = 1.27; activity call = inactive
Dgcr8 #5, siRNA vendor or control pool qiagen single siRNA: p65 translocation z-score, replicate mean = -0.521; p65 translocation z-score, replicate 1 = -0.511; activity call = inactive
Dgcr8 #6, siRNA vendor or control pool qiagen single siRNA: p65 translocation z-score, replicate mean = -1.04; p65 translocation z-score, replicate 1 = -1.65; activity call = inactive
Lrrc10 #1, siRNA vendor or control pool ambion single siRNA: p65 translocation z-score, replicate mean = -1.06; p65 translocation z-score, replicate 1 = -0.931; activity call = inactive
Lrrc10 #2, siRNA vendor or control pool ambion single siRNA: p65 translocation z-score, replicate mean = -1.57; p65 translocation z-score, replicate 1 = -1.04; activity call = inactive
Lrrc10 #3, siRNA vendor or control pool ambion single siRNA: p65 translocation z-score, replicate mean = 0.213; p65 translocation z-score, replicate 1 = 0.865; activity call = inactive
Lrrc10 #4, siRNA vendor or control pool qiagen single siRNA: p65 translocation z-score, replicate mean = 0.191; p65 translocation z-score, replicate 1 = -0.376; activity call = inactive
Lrrc10 #5, siRNA vendor or control pool qiagen single siRNA: p65 translocation z-score, replicate mean = -0.472; p65 translocation z-score, replicate 1 = -3.31; activity call = inactive
Lrrc10 #6, siRNA vendor or control pool qiagen single siRNA: p65 translocation z-score, replicate mean = 2.99; p65 translocation z-score, replicate 1 = 0.58; activity call = active
1700010I14Rik #1, siRNA vendor or control pool ambion single siRNA: p65 translocation z-score, replicate mean = 0.563; p65 translocation z-score, replicate 1 = 0.574; activity call = inactive
1700010I14Rik #2, siRNA vendor or control pool ambion single siRNA: p65 translocation z-score, replicate mean = 2.58; p65 translocation z-score, replicate 1 = 2.11; activity call = active
1700010I14Rik #3, siRNA vendor or control pool ambion single siRNA: p65 translocation z-score, replicate mean = -3.97; p65 translocation z-score, replicate 1 = -3.31; activity call = active
1700010I14Rik #4, siRNA vendor or control pool qiagen single siRNA: p65 translocation z-score, replicate mean = 2.52; p65 translocation z-score, replicate 1 = 2.55; activity call = active
1700010I14Rik #5, siRNA vendor or control pool qiagen single siRNA: p65 translocation z-score, replicate mean = 1.35; p65 translocation z-score, replicate 1 = 0.309; activity call = inactive
1700010I14Rik #6, siRNA vendor or control pool qiagen single siRNA: p65 translocation z-score, replicate mean = 2.72; p65 translocation z-score, replicate 1 = 2.15; activity call = active

Records listed so far whose target name begins with L or l (6):
Lrrc10 #1, siRNA vendor or control pool ambion single siRNA: p65 translocation z-score, replicate mean = -1.06; p65 translocation z-score, replicate 1 = -0.931; activity call = inactive
Lrrc10 #2, siRNA vendor or control pool ambion single siRNA: p65 translocation z-score, replicate mean = -1.57; p65 translocation z-score, replicate 1 = -1.04; activity call = inactive
Lrrc10 #3, siRNA vendor or control pool ambion single siRNA: p65 translocation z-score, replicate mean = 0.213; p65 translocation z-score, replicate 1 = 0.865; activity call = inactive
Lrrc10 #4, siRNA vendor or control pool qiagen single siRNA: p65 translocation z-score, replicate mean = 0.191; p65 translocation z-score, replicate 1 = -0.376; activity call = inactive
Lrrc10 #5, siRNA vendor or control pool qiagen single siRNA: p65 translocation z-score, replicate mean = -0.472; p65 translocation z-score, replicate 1 = -3.31; activity call = inactive
Lrrc10 #6, siRNA vendor or control pool qiagen single siRNA: p65 translocation z-score, replicate mean = 2.99; p65 translocation z-score, replicate 1 = 0.58; activity call = active
